Results deposited as PubChem BioAssay AID1259424 (University of Nebraska Medical Center, 2018)
Shown is a random part of about 14,000 reagents. 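Higher correlation or smaller distance means closer resemblance to KSR1 loss; control wells, including KSR1 knockdowns, recur on many plates.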 Not all columns of the deposit are shown. The record does not give: the time to read-out.

Assay: 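Seek colon cancer survival genes behaving like KSR1, using a six-gene signature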 (primary screen)
Cell system: human HCT116 colon cancer cells
Reagents: siRNA pool against human genes, 50 nM
Measured: 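Log2 levels of six mRNAs (branched-DNA multiplex), adjusted by two reference genes and the non-targeting median, then scored against the average KSR1 knockdown pattern as Pearson r and euclidean distance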
Reading the numbers: mean correlation with KSR1 profile: higher = expression change more like KSR1 knockdown

For ALG10 (ALG10 alpha-1,2-glucosyltransferase), what does the deposit list?
mean correlation with KSR1 profile: -0.355

For SRF (serum response factor), what does the deposit list?
mean correlation with KSR1 profile: 0.386

What is on record for MGRN1 (mahogunin ring finger 1)?
mean correlation with KSR1 profile: -0.331

For PSMD3 (proteasome 26S subunit, non-ATPase 3), how do the results read?
mean correlation with KSR1 profile: -0.597

With SF3B3 (splicing factor 3b subunit 3), what was measured?
mean correlation with KSR1 profile: -0.31

For FRMD5 (FERM domain containing 5), what does the deposit list?
mean correlation with KSR1 profile: 0.185

With ADORA1 (adenosine A1 receptor), what does the deposit list?
mean correlation with KSR1 profile: 0.523

Part of the list above, set out differently:
Gene | mean correlation with KSR1 profile
MGRN1 (mahogunin ring finger 1) | -0.331
PSMD3 (proteasome 26S subunit, non-ATPase 3) | -0.597

The listing continues.
What is on record for ZMPSTE24 (zinc metallopeptidase STE24)?
mean correlation with KSR1 profile: -0.472

What is on record for ABCB10 (ATP binding cassette subfamily B member 10)?
mean correlation with KSR1 profile: -0.63

With PADI3 (peptidyl arginine deiminase 3), what does the deposit list?
mean correlation with KSR1 profile: -0.269

What is on record for PLCG1 (phospholipase C gamma 1)?
mean correlation with KSR1 profile: 0.0995

Which result is listed for RNF20 (ring finger protein 20)?
mean correlation with KSR1 profile: -0.629

Which result is listed for SORD (sorbitol dehydrogenase)?
mean correlation with KSR1 profile: -0.568

How did the screen score SNRPN (small nuclear ribonucleoprotein polypeptide N)?
mean correlation with KSR1 profile: 0.399

What did the screen give for AGXT (alanine--glyoxylate aminotransferase)?
mean correlation with KSR1 profile: -0.296

How did the screen score FBXL17 (F-box and leucine rich repeat protein 17)?
mean correlation with KSR1 profile: 0.454

For PA2G4 (proliferation-associated 2G4), what does the deposit list?
mean correlation with KSR1 profile: -0.0323

For LPXN (leupaxin), what does the deposit list?
mean correlation with KSR1 profile: -0.28

How did the screen score EEFSEC (eukaryotic elongation factor, selenocysteine-tRNA specific)?
mean correlation with KSR1 profile: -0.555
